These results are taken from article doi:10.1101/2022.07.22.501200.

The chains behind the UniProt entries cited, without tags or fusion partners.
UniProt G5EES3: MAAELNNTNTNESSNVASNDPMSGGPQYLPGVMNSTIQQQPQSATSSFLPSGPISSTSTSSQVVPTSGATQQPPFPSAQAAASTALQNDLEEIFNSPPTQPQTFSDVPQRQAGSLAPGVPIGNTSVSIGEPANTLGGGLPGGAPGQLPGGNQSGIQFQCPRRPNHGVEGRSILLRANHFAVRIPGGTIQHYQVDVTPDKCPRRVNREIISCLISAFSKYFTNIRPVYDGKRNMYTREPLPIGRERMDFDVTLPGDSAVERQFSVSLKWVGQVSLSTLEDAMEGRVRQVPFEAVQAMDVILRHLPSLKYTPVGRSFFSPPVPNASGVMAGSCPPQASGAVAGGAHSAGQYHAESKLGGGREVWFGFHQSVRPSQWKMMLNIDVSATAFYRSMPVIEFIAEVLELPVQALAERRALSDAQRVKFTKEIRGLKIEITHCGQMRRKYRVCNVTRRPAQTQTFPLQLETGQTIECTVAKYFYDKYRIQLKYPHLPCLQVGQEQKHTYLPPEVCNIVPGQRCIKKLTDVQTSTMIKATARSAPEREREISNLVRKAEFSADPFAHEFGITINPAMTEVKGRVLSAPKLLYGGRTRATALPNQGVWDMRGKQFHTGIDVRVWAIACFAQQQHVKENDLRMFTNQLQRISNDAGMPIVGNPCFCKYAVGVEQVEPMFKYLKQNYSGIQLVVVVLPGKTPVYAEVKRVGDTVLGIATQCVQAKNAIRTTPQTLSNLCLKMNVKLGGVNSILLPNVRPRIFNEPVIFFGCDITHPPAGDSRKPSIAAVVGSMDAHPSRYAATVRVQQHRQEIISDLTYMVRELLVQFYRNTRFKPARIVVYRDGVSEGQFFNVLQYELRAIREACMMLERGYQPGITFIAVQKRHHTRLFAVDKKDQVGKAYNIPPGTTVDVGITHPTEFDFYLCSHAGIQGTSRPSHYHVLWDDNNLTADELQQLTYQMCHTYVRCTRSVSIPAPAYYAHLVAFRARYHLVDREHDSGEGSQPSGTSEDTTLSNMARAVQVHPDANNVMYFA

No constants are given. Whether binding was seen depends on the method and setting. Binding seen in cells or lysates may run through a third protein. Some entries that bind do so weakly or less than the wild type. Tags and fused reporters may be left off the sequences shown.

In this assay the target is T1, HRPA-1::AID*::TEV::FLAG (C. elegans) (UniProt Q22037).
T1 sequence: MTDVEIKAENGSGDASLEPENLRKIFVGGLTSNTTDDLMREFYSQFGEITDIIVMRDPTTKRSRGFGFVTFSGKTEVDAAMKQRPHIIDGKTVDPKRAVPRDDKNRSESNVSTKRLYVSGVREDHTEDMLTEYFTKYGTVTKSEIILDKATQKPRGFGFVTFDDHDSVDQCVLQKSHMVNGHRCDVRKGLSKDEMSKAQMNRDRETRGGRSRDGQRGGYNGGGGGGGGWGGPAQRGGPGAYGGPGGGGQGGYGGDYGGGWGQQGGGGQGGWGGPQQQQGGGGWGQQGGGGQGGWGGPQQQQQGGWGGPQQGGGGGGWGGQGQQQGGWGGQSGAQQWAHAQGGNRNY
As to the kind of experiment: co-IP.

As to ALG-1 (from UniProt G5EES3 1-1023), the binding entry was “binds weakly”.
